In US20220389013A1, “PYRIDOPYRIMIDINONE COMPOUNDS AND APPLICATIONS THEREOF” (BeBetter Med Inc., priority 2020, published 2022):

Assay: in vitro
Conditions: human

For `CC(C)NCC(O)COc1ccc(CC(N)=O)cc1` (stereo not shown) [Atenolol], the efflux ratio at 90 min, 10 μM (Caco-2, pH 7.4) was 0.95, the Papp A→B at 90 min, 10 μM (Caco-2, pH 7.4, Papp A-B Sample_01) was 5.2 nm/s and the Papp A→B at 90 min, 10 μM (Caco-2, pH 7.4, Papp A-B Sample_02) was 5.7 nm/s. For the same molecule, the Papp A→B at 90 min, 10 μM (Caco-2, pH 7.4, Papp A-B mean value) was 5.5 nm/s, the Papp B→A at 90 min, 10 μM (Caco-2, pH 7.4, Papp B-A Sample_01) was 5 nm/s and the Papp B→A at 90 min, 10 μM (Caco-2, pH 7.4, Papp B-A Sample_02) was 5.4 nm/s. It also gave a Papp B→A at 90 min, 10 μM (Caco-2, pH 7.4, Papp B-A mean value) of 5.2 nm/s.
